Data as given in PubChem BioAssay AID720505 (Drosophila RNAi Screening Center, 2013).

Aim: 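Knock-downs that reduce calcium influx once internal stores are emptied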 (primary screen)
Cells: Drosophila S2R+ cells
Knock-down reagent: long dsRNA against Drosophila genes
Treatment: thapsigargin (2 µM) in calcium-free buffer to empty internal stores, then 2 mM calcium added back
Detection: 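Stores emptied by 2 µM thapsigargin without calcium, then 2 mM calcium re-added; fluo-4 fluorescence followed by FLIPR in 384-well plates, per-well averaged endpoint, raw; two screen passes, some wells retested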
Scale: calcium signal: higher = more calcium entry after store depletion
Active means: 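About 1500 genes called as lowering calcium entry, by varying amounts, judged against per-plate control wells with STIM1 as positive and Rho1 as negative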
Meaning of the calls: active = called as lowering calcium entry; inactive = not called
The screen tested about 20,000 reagents; shown is an unselected part of those that have a named target and a result. Over the whole deposit, about 2,100 (10%) are marked active. 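Raw plate signals without normalisation; calls rest on control-based scores that were not deposited; replicate 2 separates called from uncalled poorly.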 Entries without a mark were called inactive. Not given: the amount of reagent, the time to read-out.

For CG12209 [SID104185911], the entry reads calcium signal, replicate 1 = 85.5; calcium signal, replicate 2 = 148. Against CG14932 [SID104182206], the values are calcium signal, replicate 1 = 212; calcium signal, replicate 2 = 110. Knock-down of CG33109 [SID104196325] came out at: calcium signal, replicate 1 = 96.5; calcium signal, replicate 2 = 85.1. With knock-down of Cbp80 (cap binding protein 80) [SID104198242], the screen gave calcium signal, replicate 1 = 93.7; calcium signal, replicate 2 = 110. For nrm (neuromusculin) [SID104191689] the deposit lists calcium signal, replicate 1 = 105; calcium signal, replicate 2 = 180. CG8204 [SID104186898] scored calcium signal, replicate 1 = 88.6; calcium signal, replicate 2 = 168.

Silencing of modSP (modular serine protease) [SID104196518] came out at: calcium signal, replicate 1 = 125; calcium signal, replicate 2 = 137. modSP (modular serine protease) [SID104196649] showed calcium signal, replicate 1 = 103; calcium signal, replicate 2 = 112. modSP (modular serine protease) [SID104201219] gave calcium signal, replicate 1 = 126; calcium signal, replicate 2 = 99.4. CG1368 [SID104199329] showed calcium signal, replicate 1 = 106; calcium signal, replicate 2 = 87.2. After knock-down of CG17930 [SID104195084], the screen gave calcium signal, replicate 1 = 121; calcium signal, replicate 2 = 229. CRIF (CR6-interacting factor) [SID104191603] scored calcium signal, replicate 1 = 82.7; calcium signal, replicate 2 = 120.

As entered above.
For “calcium signal, replicate 1”, modSP (modular serine protease) [SID104201219] has 126
Value for nrm (neuromusculin) [SID104191689] under “calcium signal, replicate 2”: 180
